In patent US4687762A, “Water soluble drug complex and method for production of same” (Green Cross Corporation, priority 1984, dated 1987):
The name of at least one read-out is uncertain.

Test: Oral route absorption in rats
Format: in vivo, rat (male Wistar)
Settings: dosage taken as 100%
Description: The oral route absorption of the drug-phospholipid complex according to this invention administered was compared with that of the component drug similarly administered. […] Twenty-four hours after the administration, the degree of retention of the drug in each organ was estimated by determining the radio-activity level.

In the case of O=c1[nH]cc(F)c(=O)[nH]1 [5-Fluorouracil], the “Absorption Rate, Drug” value is reported as 53%.
